{"source": "paper PMC4627097", "target": "HsDus2^dusD (Dus domain of human dihydrouridine synthase 2: TIM barrel and alpha-helical sub-domain) (human) (UniProt Q9NX74)", "assay": "SEC + crystal structure; gel filtration on Superdex S200 in 25 mM Tris pH 8, 150 mM NaCl; crystal in space group I222 with one molecule in the asymmetric unit; both purified", "note": "Results are given in words; binding and its absence hold for the method and conditions named.", "data": [{"binder": "HsDus2^dusD (Dus domain of human dihydrouridine synthase 2: TIM barrel and alpha-helical sub-domain) (domain or fragment, UniProt Q9NX74 14-333) LILAPMVRVGTLPMRLLALDYGADIVYCEELIDLKMIQCKRVVNEVLSTVDFVAPDDRVVFRTCEREQNRVVFQMGTSDAERALAVARLVENDVAGIDVNMGCPKQYSTKGGMGAALLSDPDKIEKILSTLVKGTRRPVTCKIRILPSLEDTLSLVKRIERTGIAAIAVHGRKREERPQHPVSCEVIKAIADTLSIPVIANGGSHDHIQQYSDIEDFRQATAASSVMVARAAMWNPSIFLKEGLRPLEEVMQKYIRYAVQYDNHYTNTKYCLCQMLREQLESPQGRLLHAAQSSREICEAFGLGAFYEETTQELDAQQAR", "values": [{"measurement": "binding", "result": "no binding"}]}]}
